No constants are given. Whether binding was seen depends on the method and setting. Binding seen in cells or lysates may run through a third protein. Some entries that bind do so weakly or less than the wild type.
Experiments:
[1] = molecular target: Nucleotide binding oligomerization domain containing 2 (NOD2) (human (in BIC-1 and OE33 cells)) (UniProt Q9HC29); experiment: co-IP; RIPA lysates of BIC-1 and OE33 cells; NOD2 or ATG16L1 antibody (1 ug) overnight at 4 C, protein A agarose beads 4 h at 4 C, washed with modified RIPA buffer; Western blot; done in both directions
[2] = molecular target: P-ATG16L1 (phosphorylated ATG16L1) (human (endogenous in BIC-1 and OE33)) (UniProt Q676U5); experiment: as above

Amino acid sequences for entries named in this document (tags omitted).
UniProt Q9HC29: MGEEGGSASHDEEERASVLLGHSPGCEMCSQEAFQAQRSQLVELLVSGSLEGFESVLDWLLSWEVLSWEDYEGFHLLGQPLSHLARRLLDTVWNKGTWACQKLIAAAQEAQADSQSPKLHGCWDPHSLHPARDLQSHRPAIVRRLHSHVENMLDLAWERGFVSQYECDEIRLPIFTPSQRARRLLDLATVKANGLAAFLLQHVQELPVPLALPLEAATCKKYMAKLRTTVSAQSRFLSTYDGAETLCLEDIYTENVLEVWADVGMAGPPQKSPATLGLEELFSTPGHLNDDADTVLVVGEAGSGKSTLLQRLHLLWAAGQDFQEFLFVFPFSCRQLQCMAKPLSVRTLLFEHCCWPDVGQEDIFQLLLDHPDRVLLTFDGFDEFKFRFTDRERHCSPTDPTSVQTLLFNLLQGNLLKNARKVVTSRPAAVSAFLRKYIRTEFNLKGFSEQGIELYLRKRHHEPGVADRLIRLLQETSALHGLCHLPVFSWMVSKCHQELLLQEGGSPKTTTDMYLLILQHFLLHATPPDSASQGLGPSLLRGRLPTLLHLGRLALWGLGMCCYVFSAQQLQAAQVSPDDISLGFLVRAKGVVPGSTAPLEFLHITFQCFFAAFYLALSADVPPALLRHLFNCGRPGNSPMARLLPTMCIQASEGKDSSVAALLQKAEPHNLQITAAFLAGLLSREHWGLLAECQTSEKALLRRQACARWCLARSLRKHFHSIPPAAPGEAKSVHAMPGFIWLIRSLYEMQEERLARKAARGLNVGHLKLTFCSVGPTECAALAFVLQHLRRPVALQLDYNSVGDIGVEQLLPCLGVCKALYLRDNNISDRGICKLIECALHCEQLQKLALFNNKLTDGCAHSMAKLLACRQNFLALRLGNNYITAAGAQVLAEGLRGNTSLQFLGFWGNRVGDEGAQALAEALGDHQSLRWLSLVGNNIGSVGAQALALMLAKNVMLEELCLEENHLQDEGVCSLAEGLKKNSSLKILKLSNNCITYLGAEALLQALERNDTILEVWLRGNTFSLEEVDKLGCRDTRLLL
UniProt Q676U5: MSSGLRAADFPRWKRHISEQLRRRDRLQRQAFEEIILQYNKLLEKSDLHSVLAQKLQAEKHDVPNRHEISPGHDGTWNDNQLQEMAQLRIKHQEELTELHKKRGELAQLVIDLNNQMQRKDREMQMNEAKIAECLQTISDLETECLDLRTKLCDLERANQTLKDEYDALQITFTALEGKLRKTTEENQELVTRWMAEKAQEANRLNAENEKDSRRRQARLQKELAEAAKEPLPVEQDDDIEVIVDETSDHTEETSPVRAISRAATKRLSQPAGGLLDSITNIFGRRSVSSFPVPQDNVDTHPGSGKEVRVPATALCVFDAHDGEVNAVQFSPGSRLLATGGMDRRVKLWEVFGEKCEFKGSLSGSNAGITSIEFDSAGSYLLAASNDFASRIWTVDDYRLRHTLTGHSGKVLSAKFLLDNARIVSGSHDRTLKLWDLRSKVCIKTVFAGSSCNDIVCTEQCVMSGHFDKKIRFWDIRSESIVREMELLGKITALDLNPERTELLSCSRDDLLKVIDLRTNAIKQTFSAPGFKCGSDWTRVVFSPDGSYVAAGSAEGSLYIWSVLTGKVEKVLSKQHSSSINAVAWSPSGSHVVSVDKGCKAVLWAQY

| Substance | binding [1] | binding [2] |
| --- | --- | --- |
| P-ATG16L1 (phosphorylated ATG16L1) (from UniProt Q676U5 1-607) | binds |  |
| Nucleotide binding oligomerization domain containing 2 (NOD2) (from UniProt Q9HC29 1-1040) |  | binds |

Reference: paper PMC9931811
